No constants are given. Whether binding was seen depends on the method and setting. For some assays here: In cells and extracts the contact can be indirect. Some entries that bind do so weakly or less than the wild type. For some assays here: Sequences can lack the tags named with a protein.
What was measured:
[1] = biological target: T1, TRAF3, endogenous in MH-S alveolar macrophages (mouse (endogenous in MH-S)) (UniProt Q60803); experiment: co-IP; MH-S macrophages infected with S. aureus strains (MOI = 25) for the indicated times; lysates incubated with the indicated gels at 4 °C overnight; immunoblot
T1 sequence: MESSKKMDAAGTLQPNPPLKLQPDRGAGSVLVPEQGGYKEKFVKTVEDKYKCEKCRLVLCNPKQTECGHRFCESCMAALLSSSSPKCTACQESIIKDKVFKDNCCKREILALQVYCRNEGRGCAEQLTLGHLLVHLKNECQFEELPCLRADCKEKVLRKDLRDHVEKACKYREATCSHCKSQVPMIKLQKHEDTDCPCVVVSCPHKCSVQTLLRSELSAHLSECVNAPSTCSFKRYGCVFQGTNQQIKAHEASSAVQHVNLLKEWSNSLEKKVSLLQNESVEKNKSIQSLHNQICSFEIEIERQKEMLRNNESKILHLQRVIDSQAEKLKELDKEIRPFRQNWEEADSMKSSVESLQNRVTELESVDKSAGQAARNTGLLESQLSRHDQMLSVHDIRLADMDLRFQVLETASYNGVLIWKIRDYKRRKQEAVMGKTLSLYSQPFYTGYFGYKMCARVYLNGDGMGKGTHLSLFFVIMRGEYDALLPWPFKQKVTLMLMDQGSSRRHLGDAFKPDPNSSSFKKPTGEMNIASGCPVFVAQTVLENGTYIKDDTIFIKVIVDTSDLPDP

Protein sequences, listed by entry. Tags and fused reporters are not part of them.
UniProt Q9ET26: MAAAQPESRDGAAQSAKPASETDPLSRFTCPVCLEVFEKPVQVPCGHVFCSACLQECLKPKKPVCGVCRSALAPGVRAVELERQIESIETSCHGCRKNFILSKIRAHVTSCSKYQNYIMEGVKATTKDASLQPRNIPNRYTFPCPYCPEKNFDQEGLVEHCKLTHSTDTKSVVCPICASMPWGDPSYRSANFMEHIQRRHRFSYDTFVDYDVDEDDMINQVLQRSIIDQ
UniProt Q62210: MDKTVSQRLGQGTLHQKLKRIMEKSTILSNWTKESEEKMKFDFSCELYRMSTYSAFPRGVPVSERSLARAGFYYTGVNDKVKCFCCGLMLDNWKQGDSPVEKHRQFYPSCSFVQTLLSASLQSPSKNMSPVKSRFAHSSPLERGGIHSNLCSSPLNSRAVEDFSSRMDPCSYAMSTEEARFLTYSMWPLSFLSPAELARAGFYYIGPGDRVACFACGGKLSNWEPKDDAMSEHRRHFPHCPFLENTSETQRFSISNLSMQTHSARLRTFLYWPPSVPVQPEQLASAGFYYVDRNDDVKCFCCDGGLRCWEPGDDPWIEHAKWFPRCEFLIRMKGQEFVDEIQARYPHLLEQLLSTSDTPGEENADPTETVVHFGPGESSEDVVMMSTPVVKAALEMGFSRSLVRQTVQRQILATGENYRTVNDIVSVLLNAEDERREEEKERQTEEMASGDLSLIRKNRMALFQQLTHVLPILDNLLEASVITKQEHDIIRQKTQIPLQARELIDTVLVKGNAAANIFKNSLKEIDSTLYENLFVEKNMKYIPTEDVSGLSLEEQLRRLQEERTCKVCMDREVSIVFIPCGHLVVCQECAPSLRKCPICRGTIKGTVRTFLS

[2] = biological target: extracellular fibrinogen-binding protein (Efb), overexpressed in HEK293T cells (Staphylococcus aureus) (UniProt A6QG59); experiment: co-IP; HEK293T cells transfected with the indicated plasmids (PEI, 48 h); lysates incubated with the indicated gels at 4 °C overnight, washed three times with cell lysis buffer; immunoblot
[3] = biological target: Flag-Efb released by the intracellular S. aureus complementation strain ΔEfb + Flag − Efb (Staphylococcus aureus Newman) (UniProt A6QG59); experiment: co-IP; MH-S macrophages infected with S. aureus strains (MOI = 25) for the indicated times; lysates incubated with the indicated gels at 4 °C overnight; immunoblot
[4] = biological target: T2, tumor necrosis factor receptor associated factor (TRAF) 3, overexpressed in HEK293T cells (UniProt Q60803); experiment: co-IP; HEK293T cells transfected with the indicated plasmids (PEI, 48 h); lysates incubated with the indicated gels at 4 °C overnight, washed three times with cell lysis buffer; immunoblot
T2 sequence: T1 sequence

[5] = biological target: T3, purified TRAF3 (GST-pull down assay) (UniProt Q60803); experiment: pull-down; in vitro GST-pull down with purified Efb and TRAF3; both purified
T3 sequence: T1 sequence

Efb released by the intracellular S. aureus Newman strain (from UniProt A6QG59 30-165)
binding [1]: binds

Flag-Efb released by the intracellular S. aureus complementation strain ΔEfb + Flag − Efb (from UniProt A6QG59 30-165)
binding [1]: binds

RING finger protein 114 (RNF114), overexpressed in HEK293T cells (from UniProt Q9ET26 1-229) (enzyme)
binding [2]: binds

RNF114, endogenous in MH-S alveolar macrophages (from UniProt Q9ET26 1-229) (enzyme)
binding [3]: binds

cIAP1, endogenous in MH-S alveolar macrophages (from UniProt Q62210 1-612)
binding [1]: binds

cellular-inhibitor-of-apoptosis-1 (cIAP1), overexpressed in HEK293T cells (from UniProt Q62210 1-612)
binding [4]: binds

extracellular fibrinogen-binding protein (Efb), overexpressed in HEK293T cells (from UniProt A6QG59 30-165)
binding [4]: binds

purified Efb (GST-pull down assay) (from UniProt A6QG59 30-165)
binding [5]: binds

— publication PMC9484707
